# The list shows a part of the results. Shown are side measurements of this screen, not its main read-out; they come without a call. Compounds called inactive in the main read-out are mostly missing here. Words in brackets tell the shape of the fitted curve; partial curves, single points and poor fits give uncertain potencies.
# Assay: qHTS Assay for Lipid Storage Modulators in Drosophila S3 Cells;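 on cell number change: cells counted by Cell Tracker Red CMTPX staining in the red channel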
# Conditions: BODIPY lipid droplet fluorescence, 18-24 h; for cell number change: measured here: cell count max response, cells fed with added oleic acid
# Procedure, shortened: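 Drosophila S3 cells got compounds at several concentrations plus oleic acid (400 uM solution). Laser-scanning cytometry with 488 nm excitation read lipid droplets at 500-530 nm and cells at 575-640 nm. Percent activity was relative to 20 uM Triacsin C.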
# [1] = measured here: cell number channel AC50, cells fed with added oleic acid
# [2] = measured here: lipid fluorescence (Fed channel) AC50, cells fed with added oleic acid
SMILES,cell number change [%],AC50 [1],AC50 [2]
O=C(O)c1ccccc1C(=O)c1cccc2ccccc12,72.1,"18.4 µM [rising, partial curve]",–
COc1ccccc1Nc1ncc(-c2cccs2)s1,3.66,–,"16.4 µM [falling, single point]"
N#Cc1ccc(NC(=O)COC(=O)C2Cc3ccccc3CN2C(=O)c2ccccc2)cc1 (stereo not drawn),10.8,–,"1.16 µM [rising, partial curve]"
Cc1cc(C)c(C(=O)CN2C(=O)NC3(CCC(C)CC3)C2=O)cc1C (stereo not drawn),21.2,–,"29.1 µM [rising, partial curve, poor fit]"
Cc1nnc(SCC(=O)Nc2sc3c(c2C#N)CCCC3)[nH]c1=O,18.7,–,–
Cc1c([N+](=O)[O-])cc(C(=O)Nc2ccc(Cc3ccncc3)cc2)cc1[N+](=O)[O-],50.2,"18.4 µM [rising, partial curve]","29.1 µM [rising, single point]"
COc1ccc(NC(=O)c2cc(S(=O)(=O)N(Cc3ccccc3)c3ccccc3)ccc2Cl)cn1,1.3,–,"0.731 µM [rising, single point]"
CCOC(=O)c1cnc(-n2[nH]c(C)c(Cc3ccccc3)c2=O)[nH]c1=O,-65.5,"1.46 µM [falling, partial curve]","0.461 µM [falling, partial curve]"
CCOC(=O)c1ccc(NC(=O)CCNc2c(N3CCCC3)c(=O)c2=O)cc1,11.4,–,–
Cn1c(=O)[nH]c(=O)c2c1nc(CN1CCN(Cc3ccccc3)CC1)n2CC(N)=O,-128,"32.6 µM [falling, partial curve]","7.31 µM [falling, partial curve]"
O=C(Cn1[nH]c(=O)c2ccccc2c1=O)OCC(=O)c1ccc(F)cc1,-8.04,–,"2.06 µM [rising, full curve]"
Cc1c(C(=O)c2ccc(F)cc2F)c2ccccn2c1CCC#N,-18.1,–,"6.51 µM [rising, single point]"
O=c1ccsn1Cc1ccccc1,-78.4,"32.6 µM [falling, partial curve]","29.1 µM [falling, partial curve, poor fit]"
CC(C)(C)n1nc2c(c1NC(=O)c1ccccc1F)CS(=O)C2 (stereo not drawn),42.2,"29.1 µM [rising, single point]",–
Cc1csc2ncnc(NC3CCN(Cc4ccccc4)CC3)c12,-34.2,"14.6 µM [falling, single point]","0.146 µM [falling, full curve, poor fit]"
O=C(COC(=O)C(Cc1ccccc1)NC(=O)c1ccc(Cl)cc1)c1ccc(Cl)cc1 (stereo not drawn),0.114,–,"0.651 µM [falling, single point]"
CC(=O)c1ccc(NC(=O)C2CC(=O)N(Cc3ccccc3)C2)cc1 (stereo not drawn),47.3,"16.4 µM [rising, single point]","3.26 µM [falling, partial curve]"
CCOC(=O)Nc1ccc(S(=O)(=O)Nc2cc(C)nc(C)n2)cc1,-33.8,"0.103 µM [falling, full curve]","9.2 µM [falling, partial curve]"
O=C1CCc2cc(S(=O)(=O)N3CCC(C(=O)NCCC4=CCCCC4)CC3)ccc2N1,18.4,–,"2.91 µM [rising, partial curve]"
Cn1nc(C(=O)NCc2ccc(F)cc2)cc1C(=O)NCc1ccc(F)cc1,–,"6.51 µM [rising, single point]",–

# Four entries drawn at random from those above:
SMILES,cell number change [%],AC50 [1],AC50 [2]
Cc1nnc(SCC(=O)Nc2sc3c(c2C#N)CCCC3)[nH]c1=O,18.7,–,–
CC(=O)c1ccc(NC(=O)C2CC(=O)N(Cc3ccccc3)C2)cc1 (stereo not drawn),47.3,"16.4 µM [rising, single point]","3.26 µM [falling, partial curve]"
CC(C)(C)n1nc2c(c1NC(=O)c1ccccc1F)CS(=O)C2 (stereo not drawn),42.2,"29.1 µM [rising, single point]",–
Cn1nc(C(=O)NCc2ccc(F)cc2)cc1C(=O)NCc1ccc(F)cc1,–,"6.51 µM [rising, single point]",–

# The list continues:

SMILES,cell number change [%],AC50 [1],AC50 [2]
COC(=O)c1cccc(NC(=S)NCc2ccco2)c1,16.6,"0.082 µM [rising, full curve, poor fit]","0.58 µM [falling, single point]"
O=C(c1ccco1)N1CCN(S(=O)(=O)c2ccc3c(c2)CCN3C(=O)C2CCC2)CC1,-26.4,–,"14.6 µM [falling, single point]"
Cc1ccc(-c2c(C(=O)N/N=C/c3ccc4c(c3)OCO4)nnn2-c2nonc2N)cc1,6.42,–,"29.1 µM [rising, single point]"
S=c1[nH]nc(-c2cc(-c3ccco3)[nH]n2)n1-c1ccccc1Cl,11.9,–,"25.9 µM [rising, partial curve, poor fit]"
CC(=O)Nc1nc(C)c(-c2csc(Nc3ccc(O)cc3)n2)s1,-64.9,"29.1 µM [falling, single point]","29.1 µM [falling, single point]"
COc1cc(N)c(Cl)cc1C(=O)OC(C)C(=O)Nc1cccc(S(=O)(=O)N2CCOCC2)c1 (stereo not drawn),-10.7,–,–
CCCCn1cnc2sc3c(c2c1=N)CCCC3,-13.2,"0.0058 µM [falling, full curve, poor fit]",–
COC(C[C@H](O)C[C@@H](O)COCc1ccccc1)OC,2.46,–,"0.259 µM [falling, full curve, poor fit]"
Cc1ccc(C)c(NC2=C(Cl)C(=O)OC2OC(=O)c2ccco2)c1 (stereo not drawn),-20,"0.82 µM [falling, full curve, poor fit]","29.1 µM [rising, partial curve, poor fit]"
COc1cc(C(=O)Nc2cccc(C)c2C)c(Br)c(OC)c1OC,31.6,"18.4 µM [rising, single point]",–
Cc1occc1-c1nnc(SCC(=O)N2CCCC(C)C2)o1 (stereo not drawn),-2.8,"2.91 µM [rising, partial curve, poor fit]",–
CCOC(=O)c1ccccc1NC(=O)c1ccc(F)cc1,-1.21,–,"7.31 µM [rising, partial curve]"
COc1ccccc1/C=N/N(C(C)=O)c1nc(-c2ccc(F)cc2)cs1,-22.6,–,–
NS(=O)(=O)c1ccc(CNC(=O)CCCSc2ccccc2)cc1,10.3,–,–
COC(=O)C1=C(C)N(Cc2ccccc2)C(=NCCc2c[nH]c3ccccc23)N[C@H]1c1cccc(C(F)(F)F)c1,-0.291,–,"29.1 µM [falling, single point]"
C=CCn1c(-c2csc3ccccc23)n[nH]c1=S,–,–,"1.64 µM [rising, partial curve]"
O=C(COC(=O)c1cc(=O)c2ccccc2o1)Nc1c(F)c(F)c(F)c(F)c1F,–,"0.146 µM [rising, full curve, poor fit]","6.51 µM [rising, single point]"
Cc1ccc(C)c(NC(=O)c2ccccc2Sc2ccc([N+](=O)[O-])cc2Cl)c1,9.05,–,"23.1 µM [rising, single point]"
Cc1ccc(/C=N/Nc2nnc(Cl)c3ccccc23)cc1,27,–,"1.84 µM [rising, partial curve]"
Cc1ccc(Cn2nnc(C(=O)Nc3cccc(C)c3C)c2N)cc1,22.6,–,–

SMILES,cell number change [%],AC50 [1],AC50 [2]
COC(=O)c1c(C)[nH]c(C(=O)OCC(=O)NC(C)(C)C)c1C,21.8,–,–
O=c1[nH][nH]c(-c2ccccc2)c1C=Nc1ccccc1Cl,-14.2,–,–
O=S(=O)(c1ccccc1)c1nc(-c2ccc(Cl)cc2)oc1NCCCN1CCOCC1,-98.8,"14.6 µM [falling, partial curve, poor fit]","5.17 µM [falling, full curve]"
Nc1ccc(C23CC4CC(CC(C4)C2)C3)cc1,-28,–,"29.1 µM [falling, single point]"
COC(=O)CSc1nc2ncc(Cl)cc2[nH]1,-18,"3.26 µM [falling, single point]","16.4 µM [falling, partial curve]"
Cc1ccccc1NC(=S)NCCc1c[nH]c2ccccc12,–,"2.91 µM [falling, partial curve, poor fit]",–
COc1ccc(-c2noc(N3CCC(C(=O)Nc4ccc(OC)c(OC)c4)CC3)n2)cc1,21.3,–,"29.1 µM [rising, single point]"
CCn1cc(C(=O)O)c(=O)c2cc(F)c(N3CCN(S(=O)(=O)c4ccc5c(c4)OCCO5)CC3)cc21,-5.19,"0.00651 µM [rising, full curve, poor fit]",–
Cc1cc(C)nc(SCC(=O)c2cc3ccccc3oc2=O)n1,2.7,–,–
O=C(CCN1C(=O)c2ccccc2C1=O)Nc1cc(F)ccc1F,12.5,–,"25.9 µM [falling, partial curve, poor fit]"
Cc1cc(S(=O)(=O)N2CCN(c3ccc(F)cc3)CC2)ccc1-n1cnnn1,–,"0.164 µM [rising, partial curve, poor fit]","6.51 µM [falling, single point]"
Cn1nnnc1SCC(=O)N1c2ccccc2Sc2ccc(Cl)cc21,55.4,"13 µM [rising, partial curve]",–
Cc1ccc(NC(=O)N2CCCC2C(=O)NCc2ccc3c(c2)OCO3)cc1 (stereo not drawn),-9.24,–,"3.26 µM [falling, full curve]"
COc1ccccc1CN1CC(C(=O)N2CCC(C(=O)c3ccccc3)CC2)CCC1=O (stereo not drawn),-20,–,–
CCC1CN(C(=O)NCc2ccccc2)c2cc(C)ccc2O1 (stereo not drawn),-4.23,–,–
N#Cc1nc(COc2ccc(F)cc2)oc1N1CCN(Cc2ccccc2)CC1,73.8,"13 µM [rising, partial curve]","14.6 µM [rising, partial curve]"
COc1ccc(C(C(=O)NC2CCCCC2)N(Cc2cccs2)C(=O)Cc2c[nH]c3ccccc23)cc1OC (stereo not drawn),–,–,"1.3 µM [rising, full curve]"
O=C(Nc1ccc(F)cc1F)c1cc(-c2ccco2)nc2ccccc12,–,–,"29.1 µM [rising, single point]"

# — PubChem BioAssay AID2685 (National Center for Advancing Translational Sciences (NCATS), 2010)
